Data source: PubChem BioAssay AID1259425 (University of Nebraska Medical Center, 2018)
In all, the deposit lists about 14,000 reagents; this is a part drawn at random. Further read-outs or replicates are left out here. Not stated in the record: the time to read-out.

Purpose: 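Compare each knockdown with KSR1 silencing using changes in marker transcripts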 (primary screen)
Cells: HCT116 human colon cancer cells
Knock-down reagent: siRNA pool against human genes, 50 nM siRNA
Read-out: 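mRNA of six signature genes measured together by branched-DNA assay after 50 nM siRNA pool, blank removed, divided by geometric mean of two housekeeping genes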
Direction: BNIP3L mRNA: higher = more BNIP3L transcript after knockdown

| Target gene | BNIP3L mRNA, set 1 |
| --- | --- |
| CAAP1 (GeneID 79886) | 0.144 |
| ATP8A2 (GeneID 51761) | 0.124 |
| SPACA1 (GeneID 81833) | 0.066 |
| NREP (GeneID 9315) | 0.0838 |
| CSTPP1 (GeneID 79096) | 0.0846 |
| HARS2 (GeneID 23438) | 0.113 |
| MAGEA9 (GeneID 4108) | 0.123 |
| FOXS1 (GeneID 2307) | 0.136 |
| DLX4 (GeneID 1748) | 0.0536 |
| ZNF286A (GeneID 57335) | 0.0829 |
| CCNE2 (GeneID 9134) | 0.0759 |
| RNF103 (GeneID 7844) | 0.115 |
| TXNL4B (GeneID 54957) | 0.149 |
| N4BP1 (GeneID 9683) | 0.105 |
| LYL1 (GeneID 4066) | 0.0608 |
| ABCA12 (GeneID 26154) | 0.0638 |
| ERLIN2 (GeneID 11160) | 0.0663 |
| ABI3 (GeneID 51225) | 0.221 |
| MCM10 (GeneID 55388) | 0.222 |
| CTSC (GeneID 1075) | 0.0524 |
| TMPRSS11E (GeneID 28983) | 0.146 |
| LPIN2 (GeneID 9663) | 0.144 |
| BCKDHA (GeneID 593) | 0.114 |
| ZNF214 (GeneID 7761) | 0.154 |
| TAPBP (GeneID 6892) | 0.0684 |
| GPER1 (GeneID 2852) | 0.0777 |
| KMT5A (GeneID 387893) | 0.132 |
| NINL (GeneID 22981) | 0.0857 |
| NEK8 (GeneID 284086) | 0.149 |
| STOM (GeneID 2040) | 0.173 |
| DNAI1 (GeneID 27019) | 0.0718 |
| DZIP1 (GeneID 22873) | 0.0835 |
| ADAMTS4 (GeneID 9507) | 0.0708 |
| MBD5 (GeneID 55777) | 0.0654 |
| CDK5RAP1 (GeneID 51654) | 0.167 |
| CD82 (GeneID 3732) | 0.0815 |
| MKI67 (GeneID 4288) | 0.111 |
| ENDOU (GeneID 8909) | 0.133 |
| TSNAXIP1 (GeneID 55815) | 0.133 |
| ADGRG5 (GeneID 221188) | 0.0809 |
| NMBR (GeneID 4829) | 0.152 |
| NENF (GeneID 29937) | 0.0523 |
| KRT7 (GeneID 3855) | 0.186 |
| TULP1 (GeneID 7287) | 0.149 |
| SEMA5A (GeneID 9037) | 0.0828 |
| GAGE4 (GeneID 2576) | 0.112 |
| MIR503HG (GeneID 84848) | 0.112 |
| FKBP10 (GeneID 60681) | 0.167 |
| BMPR1A (GeneID 657) | 0.0444 |
| FRAS1 (GeneID 80144) | 0.132 |
